At least one structure is not confirmed: it was looked up by name or label, or the drawing left a doubt.
Assay: Loading of non-encapsulated drug on DC Beads (residual unloaded drug by HPLC)
Assay type: physicochemical
Settings: room temperature
Procedure: A drug-loading solution was prepared by adding sterile water to a vial of doxorubicin hydrochloride powder (Pharmacia & Upjohn, Kalamazoo, MI) to produce a solution of the desired concentration (for the loading experiment 25 mg Doxorubicin salt was dissolved in 5 mL water. 0.043 mmol/5 mL=8.6 mM solution). 1 mL volume of beads was aspirated via syringe, purged of as much liquid as possible, then an aqueous solution Doxorubicin (5 mL, 5 mg/mL concentration) aspirated and mixed with beads. The mixture was dispensed into a sealed vial and left to load at room temperature without agitation and left for a time until the red coloration in the solution had diminished and the beads had taken on a red color. This time was dependent on drug loading solution concentration and bead size.
The extent of drug loading was calculated from the residual unloaded drug content determined by UV/visible HPLC with DAD detector at 220 and 254 nm (Agilent 1100 Series). Estimated uptake of Doxorubicin was approximately 90% loading after 25 hours, and approximately 99% loading after 91 hours.
Sunitinib was loaded to DC Beads® using a procedure similar to that for Example 6. Estimated uptake of Sunitinib was approximately 99% after 6 hours and >99.8% after 24 hours at room temperature.

Structure (SMILES): CCN(CC)CCNC(=O)c1c(C)[nH]c(/C=C2\C(=O)Nc3ccc(F)cc32)c1C [Sunitinib]
- Estimated uptake on DC Beads (after 6 hours): approximately 99%
- Estimated uptake on DC Beads (after 24 hours): > 99.8%

From patent US12357570B2, “Chemoembolization agents” (BRUIN BIOSCIENCES, INC., priority 2017, dated 2025)
